Data taken from publication PMC5452035, “Structural insight into recognition of phosphorylated threonine‐4 of RNA polymerase II C‐terminal domain by Rtt103p” (EMBO Reports, 2017).

Assay: Cis-trans population estimation of the Ser-Pro peptide bond by [13C,1H]-HSQC
Assay type: physicochemical
Conditions: free peptide, 1 mM, 35 mM KH2PO4, 100 mM KCl pH 6.8, 90% H2O/10% D2O, 20°C, ratio of peak volumes

Substance	population of the cis conformer of the S2b–P3b prolyl‐peptidyl bond [%]
PS Y(pS)^13CP(pT)SPSYS [PS Y(pS)^13CP(pT)SPS YS, pSer2pThr4 CTD peptide with 13C‐labelled P3b]	7.8
PSYS^13CP(pT)SPSYS [PS YS^13CP(pT)SPS YS, pThr4 CTD peptide with 13C‐labelled P3b]	6.6
